Reference: PubChem BioAssay AID1671195 (Yale University, 2021)

Test: 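Regulators of LDL receptor activity judged by labelled LDL uptake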 (primary screen)
Cell system: human Huh7 hepatoma cells
Reagent: siRNA pool against human genes, 18 nM
Timing: about 2 to 2.5 days of knockdown, then 8 h LDL uptake
Challenge: DiI-labelled LDL at 30 µg/ml for 8 h, in lipoprotein-deficient serum medium
Read-out: 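Fluorescent LDL signal imaged in cells, scaled to the plate median, robust z-score for each replicate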
Direction: robust z-score: higher = more LDL uptake after knockdown
Hit rule: 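Active when two or more replicates show a robust z-score above 2 or below -2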
The deposit covers about 22,000 reagents; shown is an unselected part. Of all reagents, about 1,510 (6.9%) got an active call. 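Active includes knockdowns raising or lowering LDL uptake; positive z-scores mean more uptake, negative mean less.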 Entries without a mark were called inactive.

{"Gene": "MKX", "robust z-score, replicate 1": 1.78, "robust z-score, replicate 2": 1.41, "robust z-score, replicate 3": -0.0789}
{"Gene": "FBXO38", "robust z-score, replicate 1": -0.39, "robust z-score, replicate 2": -0.391, "robust z-score, replicate 3": 0.199}
{"Gene": "ZNF518A", "robust z-score, replicate 1": 0.131, "robust z-score, replicate 2": 0.036, "robust z-score, replicate 3": 0.786}
{"Gene": "TGFBR2", "robust z-score, replicate 1": 0.15, "robust z-score, replicate 2": 0.595, "robust z-score, replicate 3": 0.0446}
{"Gene": "RNF11", "robust z-score, replicate 1": 0.265, "robust z-score, replicate 2": 0.258, "robust z-score, replicate 3": 0.746}
{"Gene": "CORO1B", "robust z-score, replicate 1": 0.372, "robust z-score, replicate 2": 0.642, "robust z-score, replicate 3": -0.523}
{"Gene": "LOC441697 (retired record)", "robust z-score, replicate 1": 0.275, "robust z-score, replicate 2": 0.165, "robust z-score, replicate 3": -0.253}
{"Gene": "QKI", "robust z-score, replicate 1": 0.17, "robust z-score, replicate 2": 0.665, "robust z-score, replicate 3": 0.413}
{"Gene": "RAB2B", "robust z-score, replicate 1": 0.552, "robust z-score, replicate 2": -0.167, "robust z-score, replicate 3": 0.702}
{"Gene": "HTR3C", "robust z-score, replicate 1": -1.14, "robust z-score, replicate 2": -0.453, "robust z-score, replicate 3": -1.36}
{"Gene": "IGHMBP2", "robust z-score, replicate 1": -1.43, "robust z-score, replicate 2": -0.993, "robust z-score, replicate 3": -1.23}
{"Gene": "KHDRBS1", "robust z-score, replicate 1": -0.147, "robust z-score, replicate 2": -0.718, "robust z-score, replicate 3": -0.0662}
{"Gene": "PHF1", "robust z-score, replicate 1": -1.6, "robust z-score, replicate 2": -1.5, "robust z-score, replicate 3": -1.23}
{"Gene": "COQ7", "robust z-score, replicate 1": -0.0437, "robust z-score, replicate 2": -1.25, "robust z-score, replicate 3": -0.621}

The list goes on, starting with the last 3 of the part before.
{"Gene": "KHDRBS1", "robust z-score, replicate 1": -0.147, "robust z-score, replicate 2": -0.718, "robust z-score, replicate 3": -0.0662}
{"Gene": "PHF1", "robust z-score, replicate 1": -1.6, "robust z-score, replicate 2": -1.5, "robust z-score, replicate 3": -1.23}
{"Gene": "COQ7", "robust z-score, replicate 1": -0.0437, "robust z-score, replicate 2": -1.25, "robust z-score, replicate 3": -0.621}
{"Gene": "RBM24", "robust z-score, replicate 1": -0.00709, "robust z-score, replicate 2": -0.368, "robust z-score, replicate 3": 0.051}
{"Gene": "TPX2", "robust z-score, replicate 1": -0.128, "robust z-score, replicate 2": -0.627, "robust z-score, replicate 3": -0.299}
{"Gene": "PHF14", "robust z-score, replicate 1": 0.54, "robust z-score, replicate 2": 0.288, "robust z-score, replicate 3": 1.1}
{"Gene": "SLC17A6", "robust z-score, replicate 1": -0.437, "robust z-score, replicate 2": -0.502, "robust z-score, replicate 3": -1.1}
{"Gene": "LOC387940 (retired record)", "robust z-score, replicate 1": 0.423, "robust z-score, replicate 2": 0.454, "robust z-score, replicate 3": 0.189}
{"Gene": "HOXB13", "robust z-score, replicate 1": -0.0915, "robust z-score, replicate 2": -0.287, "robust z-score, replicate 3": -0.395}
{"Gene": "POLA2", "robust z-score, replicate 1": -0.312, "robust z-score, replicate 2": -1.13, "robust z-score, replicate 3": -0.805}
{"Gene": "ERCC6", "robust z-score, replicate 1": -1.51, "robust z-score, replicate 2": -1.33, "robust z-score, replicate 3": -1.38}
{"Gene": "WNT16", "robust z-score, replicate 1": 0.435, "robust z-score, replicate 2": 3.05, "robust z-score, replicate 3": 1.92}
{"Gene": "ZNF629", "robust z-score, replicate 1": 0.657, "robust z-score, replicate 2": 2.66, "robust z-score, replicate 3": -0.851}
{"Gene": "FBXO15", "robust z-score, replicate 1": 0.282, "robust z-score, replicate 2": -0.971, "robust z-score, replicate 3": -1.45}
{"Gene": "C1QTNF7", "robust z-score, replicate 1": "5.26 (active)", "robust z-score, replicate 2": 3.5, "robust z-score, replicate 3": 4.18}
{"Gene": "CHTOP", "robust z-score, replicate 1": -0.615, "robust z-score, replicate 2": 0.845, "robust z-score, replicate 3": 1.75}
{"Gene": "CCDC14", "robust z-score, replicate 1": 0.76, "robust z-score, replicate 2": 0.838, "robust z-score, replicate 3": 0.59}
{"Gene": "ITFG2", "robust z-score, replicate 1": 0.445, "robust z-score, replicate 2": 0.327, "robust z-score, replicate 3": 0.0108}
{"Gene": "LOC401579 (retired record)", "robust z-score, replicate 1": -0.292, "robust z-score, replicate 2": -1.02, "robust z-score, replicate 3": -1.22}
